The text below walks through data of PMC7118351 (BMB Reports, 2020).

The test system of one series is Ebola trVLP replication. The experiment in a line: microbe, parasite or virus in culture. It is filed as cell-based, Ebola virus (EBOV). The settings on record: for EC50: Zaire ebolavirus, HEK-293T.
Another series in a line: in vitro. The settings on record: human.

Counter-ions that a name gives are not always drawn. Where only a bound is given, the exact number is not on record here.

Broadly, the EC50 is the concentration needed to bring the measured effect to its halfway point. A high value points to a less potent agent. `CN1CCC[C@@H]1CCO[C@](C)(c1ccccc1)c1ccc(Cl)cc1` [Clemastine fumarate]: in the series on Ebola trVLP replication, the “SI (selectivity index, ratio of CC50 to EC50)” value is given as above 10.2 and the EC50 was 3 ± 0.5 µM. The compound also returned a CC50 in “in vitro” above 30 µM.

As to `CN1[C@@H]2CC[C@H]1C[C@@H](OC(c1ccccc1)c1ccccc1)C2` [Benztropine mesylate], in the series on Ebola trVLP replication, the “SI (selectivity index, ratio of CC50 to EC50)” value is listed as above 10.9 and the response was half-maximal at 3.1 ± 1.4 µM (EC50).

For `CN(C)C(=O)C(CCN1CCC(O)(c2ccc(Cl)cc2)CC1)(c1ccccc1)c1ccccc1` [Loperamide], in the series on Ebola trVLP replication, the “SI (selectivity index, ratio of CC50 to EC50)” value is recorded as above 18.6 and the EC50 was found to be 2 ± 1.3 µM.

In the case of `CNCCCC12CCC(c3ccccc31)c1ccccc12` [Maprotiline], in the series on Ebola trVLP replication, the “SI (selectivity index, ratio of CC50 to EC50)” value amounted to 26.9 ± 18.1 and the EC50 worked out at 1.2 ± 0.7 µM.
